PubChem BioAssay AID504444 (National Center for Advancing Translational Sciences (NCATS), 2011)
In all, about 360,000 compounds went through this assay and about 7,500 (2.1%) were called active. The inconclusive results got no clear call from the source; some entries with a clear call stand among them for comparison. The call rests on the fitted dose curve; in most records, active means well fitted inhibition curve with a large enough effect; inconclusive means small, poorly fitted or top-dose-only effect, or effect the other way; inactive means flat fitted curve, though single readings scatter. A potency beside an inconclusive call is a rough fit, not a confirmed value.

Test: Nrf2 qHTS screen for inhibitors; further: nearly all actives have a fitted effect of over 60% in size
Conditions: A549 ARE-Fluc reporter, luciferase luminescence, 18-24 h; series mostly up to 46 µM
In short: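 Concentration-response testing used A549 ARE_Fluc cells at 5000 cells/well. Following an 18-24 h compound incubation, viability was read by fluorescence (Ex 405/Em 525) and luciferase output by luminescence.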
Potency means the concentration at half of the fitted maximal effect.

Compound	Potency
COc1cc(-c2nnc(SCC(=O)N(Cc3ccccc3)C(C)(C)C)o2)cc(OC)c1OC	inconclusive: 6.51 µM [falling, single point]
Cc1sc2ncnc(N3CCN(S(=O)(=O)c4ccccc4)CC3)c2c1C	inconclusive: 9.2 µM [falling, partial curve]
Cc1ccc(/C=C/C(=O)O)cc1S(=O)(=O)N1CCCCC1	inconclusive: 0.651 µM [activator, full curve, poor fit]
O=C(NN=C(Cc1ccccc1)Cc1ccccc1)c1ccccc1F	inconclusive: 25.9 µM [activator, single point]
Cc1cc(C)c(NC(=O)CN2c3ccccc3S(=O)(=O)c3ccccc32)c(C)c1	inconclusive: 16.4 µM [activator, partial curve]
CCCCCOc1ccc(NC(=O)Cc2csc(C)n2)cc1	inconclusive: 29.1 µM [activator, single point]
Cc1ccc(C(=O)Nc2ccccc2C(=O)O)cc1S(=O)(=O)N1CCCCCC1	inconclusive: 3.26 µM [activator, partial curve, poor fit]
O=Cc1cccc(OC(=O)/C=C/c2ccco2)c1	inconclusive: 9.2 µM [activator, partial curve]
Clc1ccc(C[n+]2cc(-c3ccccc3)n3c2CCC3)cc1	inconclusive: 25.9 µM [falling, partial curve, poor fit]
Cc1ccc(N/C=C/C(=O)c2ccc(C)cc2)cc1	inconclusive: 2.91 µM [activator, partial curve]
C=CCN1CC(O)=C(c2nc3ccccc3[nH]2)C1=N	inconclusive: 20.6 µM [activator, single point]
N#C/C(=N\Nc1ccc([N+](=O)[O-])cc1)C(N)=S	inconclusive: 16.4 µM [falling, single point]
CCn1cc2nc(SCC(=O)Nc3ccccc3F)n(Cc3ccc(C)cc3)c(=O)c2n1	inconclusive: 11.6 µM [falling, partial curve, poor fit]
Cc1ccnc(NC(=O)c2c(C)oc3ncn(CC(C)C)c(=O)c23)c1	inconclusive: 29.1 µM [falling, single point]
S=C(Nc1ccccc1)c1nc2ccccc2s1	inconclusive: 11.6 µM [activator, partial curve]
Cc1ccccc1S(=O)(=O)N1C[C@H]2CON(C)[C@H]2C[C@H]1c1cccc(-c2ccccc2)c1	inconclusive: 16.4 µM [falling, partial curve]
Cc1nnc(SCC(=O)N2CCC(C(N)=O)CC2)s1	inconclusive: 18.4 µM [activator, partial curve, poor fit]
O=C(COC(=O)c1ccc(N2CCCC2=O)cc1)c1ccccc1	inconclusive: 9.2 µM [activator, partial curve, poor fit]
CCOc1cc(NC(=S)NCC(C)C)c(OCC)cc1NC(=O)c1ccco1	inconclusive: 11.6 µM [falling, partial curve, poor fit]
Cc1ccc2[nH]c(C(=O)Nc3ccccc3)cc2c1	inconclusive: 0.291 µM [activator, full curve, poor fit]
Oc1ccc(-c2cn3cc(C(F)(F)F)ccc3n2)cc1	inconclusive: 29.1 µM [falling, single point]

Look-ups from the list.
Potency with CCCCCOc1ccc(NC(=O)Cc2csc(C)n2)cc1 reads inconclusive: 29.1 µM [activator, single point]
Potency with S=C(Nc1ccccc1)c1nc2ccccc2s1 reads inconclusive: 11.6 µM [activator, partial curve]
Potency with Cc1ccnc(NC(=O)c2c(C)oc3ncn(CC(C)C)c(=O)c23)c1 reads inconclusive: 29.1 µM [falling, single point]

Further compounds.

Compound	Potency
COc1ccc(-c2cn[nH]c2-c2ccc(OCc3ccc([N+](=O)[O-])cc3)cc2O)cc1OC	inconclusive: 23.1 µM [falling, partial curve, poor fit]
CCN(CC)c1cc(C(F)(F)F)nc(-c2ccccn2)n1	inconclusive: 18.4 µM [falling, partial curve]
CN(C)c1nc(NCc2ccccc2)nc(N/N=C/c2ccc(Br)cc2)n1	inconclusive: 11.6 µM [activator, partial curve, poor fit]
O=C(N/N=C/c1ccc(O)cc1O)c1ccncc1	active: 11.6 µM
CCOc1cc(C2NC(=O)c3c(sc4c3CCN(C)C4)N2)ccc1OC(=O)c1ccccc1Cl (stereo unspecified)	active: 8.2 µM
N#Cc1c(C(F)(F)F)cc(C2CC2)nc1N1CCCC1	inconclusive: 29.1 µM [activator, single point]
COc1ccc(-c2[nH]c(-c3ccccc3)nc2SCC(=O)Nc2ccc3c(c2)OCCO3)cc1	inconclusive: 29.1 µM [falling, single point]
O=c1[nH]c(CN2CCN(c3ncccn3)CC2)nc2c(Br)cc(Br)cc12	inactive
O=C(c1ccc(-c2nnc(Nc3cccc(Cl)c3)c3ccccc23)cc1)N1C[C@H]2C[C@H](C1)c1cccc(=O)n1C2	inconclusive: 29.1 µM [falling, single point]
COc1ccc(/C=N/n2c(-c3ccc(C)cc3)n[nH]c2=S)cc1OC	inactive
Cc1c(C(=O)N2CCN(S(=O)(=O)c3ccccc3F)CC2)oc2c(Cl)cccc12	inconclusive: 23.1 µM [falling, single point]
Cc1cc(Nc2cc(N3CCN(C)CC3)nc(Sc3ccc(NC(=O)C4CC4)cc3)n2)n[nH]1	inconclusive: 25.9 µM [falling, partial curve, poor fit]
Cc1ccccc1Nc1cc2ccccc2c(=O)[nH]1	inconclusive: 29.1 µM [falling, single point]
O=C(COc1cccc(NC(=O)c2cccc([N+](=O)[O-])c2)c1)c1ccc(F)cc1	inconclusive: 18.4 µM [falling, single point]
O=S(=O)(c1ccc(N2CCN(S(=O)(=O)c3ccc4c(c3)OCCO4)CC2)nc1)N1CCCC1	inconclusive: 10.3 µM [falling, partial curve]
O=C(/C=C/c1cccnc1)c1ccc(NC(=O)c2cccc(Br)c2)cc1	inconclusive: 15.8 µM [falling, partial curve, poor fit]
CSc1ncccc1C(=O)NC1CC(C)(C)Cc2c1cnn2-c1ccccc1C (stereo unspecified)	inconclusive: 20.6 µM [activator, single point]
O=C(Nc1ccc(Cl)c(S(=O)(=O)N2CCOCC2)c1)C1CCCC1	active: 23.1 µM
Cn1c(Cl)c(/C=N/OC(=O)C2CC2)c2ccccc21	inconclusive: 14.6 µM [falling, partial curve, poor fit]
COc1ccc(NC(=O)N(C2CCCCC2)C(C)c2ccco2)c(OC)c1 (stereo unspecified)	inconclusive: 14.6 µM [falling, partial curve, poor fit]
Cc1ccc2c(c1)c(=O)c(C(=O)c1ccc3c(c1)OCO3)cn2Cc1cccc(F)c1	inconclusive: 20.6 µM [falling, single point]

Ordered by heavy-atom count (largest number first): some entries from above
Compound	Potency
CCOc1cc(NC(=S)NCC(C)C)c(OCC)cc1NC(=O)c1ccco1	inconclusive: 11.6 µM [falling, partial curve, poor fit]
O=C(N/N=C/c1ccc(O)cc1O)c1ccncc1	active: 11.6 µM
S=C(Nc1ccccc1)c1nc2ccccc2s1	inconclusive: 11.6 µM [activator, partial curve]

(list continues)

Compound	Potency
O=[N+]([O-])/C=C1\C=CC=CN1Cc1ccc(Cl)cc1	inconclusive: 29.1 µM [activator, single point]
COCCNc1oc(-c2ccc(COc3ccc(OC)cc3)o2)nc1C#N	inconclusive: 23.1 µM [falling, single point]
CCc1nnc(NC(=O)C2=CCN(S(=O)(=O)c3ccccc3)CC2)s1	inconclusive: 23.1 µM [falling, partial curve, poor fit]
Cc1ccccc1-n1c(C)cc(/C=C2\NC(=O)NC2=O)c1C	inconclusive: 1.84 µM [activator, partial curve, poor fit]
CCn1cc(C(=O)NCc2ccco2)c(=O)c2cc(F)c(N3CCN(C(=O)c4ccco4)CC3)cc21	inactive
CC1CCc2sc(C(=O)NC3CCCCC3)cc2C1 (stereo unspecified)	inconclusive: 2.59 µM [activator, partial curve, poor fit]
O=S(=O)(CCSc1nc2ccccc2s1)c1nc2ccccc2s1	inconclusive: 1.84 µM [falling, full curve, poor fit]
Cc1ccc(C(=O)Nc2ccccc2-c2ccccc2)cc1S(=O)(=O)Nc1cccc(C)c1C	inconclusive: 18.4 µM [falling, single point]
Cc1ccc(NC(=O)c2cccc(N3C(=O)C4C5CCC(C5)C4C3=O)c2)c(C)c1 (stereo unspecified)	inconclusive: 32.6 µM [falling, single point]
CC(=O)Nc1nc2ccc(-c3nc4ccccc4o3)cc2s1	inconclusive: 0.82 µM [activator, partial curve, poor fit]
CC(C)Oc1ccc2c(=O)c(-c3ccccc3)coc2c1	inconclusive: 0.184 µM [activator, full curve, poor fit]
Cc1cc(C2=NNC(=NC3CC3)SC2)c(C)n1-c1c(C)n(C)n(-c2ccccc2)c1=O	inconclusive: 29.1 µM [activator, single point]
CC1(C)CC(NC(=O)CCc2ccccc2)CC(C)(C)N1	inconclusive: 0.58 µM [activator, partial curve]
COc1ccc2[nH]cc(C(=O)CN3CC(C)CC(C)C3)c2c1 (stereo unspecified)	inconclusive: 1.3 µM [activator, full curve]
CCCCC(=O)NC(c1cccc([N+](=O)[O-])c1)c1ccc2cccnc2c1O (stereo unspecified)	inconclusive: 14.6 µM [falling, single point]
COc1ccc(-c2noc(CSc3nnc(Cc4ccccc4)n3-c3ccccc3)n2)cc1OC	inconclusive: 18.4 µM [falling, single point]
COC(=O)/C(C#N)=C/c1c[nH]c2ccccc12	inconclusive: 29.1 µM [activator, single point]
COC(=O)c1nn(-c2ccc(OC)cc2)c(=O)cc1NN	inconclusive: 23.1 µM [falling, single point]
CCN1C(=O)/C(=C2\C=Cc3cc(C)ccc3N2CC)OC1=S	inactive
